Values from PubChem BioAssay AID1224830 (NIAID, 2016).

- Assay: 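Regulators of TLR4 signalling towards TNF-alpha in macrophage-like cells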 (primary screen)
- System: human THP-1 monocytic leukaemia cells, TNF dual-luciferase reporter clone, PMA-differentiated to macrophage-like cells
- Reagent: siRNA pool against human genes, 50 nM
- Timing: LPS for 4 h, given about 3 days after siRNA transfection
- Treatment: bacterial LPS (TLR4 ligand), 10 ng/ml
- Measurement: 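TNF firefly reporter luminescence divided by renilla, normalised to the plate median, then turned into a robust z-score for each replicate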
- Scale: TNF reporter robust z-score: higher = stronger TNF reporter response to LPS
- Rule for the call: 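Each well counts as active if its z-score is over 2.8 or under -1.5; controls are left without a call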
Here is an unselected part of about 18,000 reagents. About 2,900 of them (16%) were called active. 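Calls are made per well; low scores hint the gene aids the LPS response, high scores that it dampens it.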 A number with no mark means an inactive call. Repeated entries: four replicate wells of each siRNA pool.

| gene | TNF reporter robust z-score |
| --- | --- |
| USP9Y (ubiquitin specific peptidase 9 Y-linked) | -1.18 |
| USP9Y (ubiquitin specific peptidase 9 Y-linked) | -0.68 |
| USP9Y (ubiquitin specific peptidase 9 Y-linked) | -0.41 |
| USP9Y (ubiquitin specific peptidase 9 Y-linked) | 0.57 |
| REEP1 (receptor accessory protein 1) | 0.26 |
| REEP1 (receptor accessory protein 1) | 1.62 |
| REEP1 (receptor accessory protein 1) | 0.68 |
| REEP1 (receptor accessory protein 1) | 1.99 |
| GEM (GTP binding protein overexpressed in skeletal muscle) | -0.65 |
| GEM (GTP binding protein overexpressed in skeletal muscle) | -0.69 |
| GEM (GTP binding protein overexpressed in skeletal muscle) | -2.01 (active) |
| GEM (GTP binding protein overexpressed in skeletal muscle) | -0.06 |
| LNP1 (leukemia NUP98 fusion partner 1) | 0.17 |
| LNP1 (leukemia NUP98 fusion partner 1) | 1.39 |
| LNP1 (leukemia NUP98 fusion partner 1) | 1.34 |
| LNP1 (leukemia NUP98 fusion partner 1) | 1.79 |
| TUBB1 (tubulin beta 1 class VI) | 0.29 |
| TUBB1 (tubulin beta 1 class VI) | 0.25 |
| TUBB1 (tubulin beta 1 class VI) | 3.33 (active) |
| TUBB1 (tubulin beta 1 class VI) | -0.66 |
| ZNF639 (zinc finger protein 639) | 0.55 |
| ZNF639 (zinc finger protein 639) | -0.06 |
| ZNF639 (zinc finger protein 639) | 0.45 |
| ZNF639 (zinc finger protein 639) | 0.49 |
| DLK1 (delta like non-canonical Notch ligand 1) | 0.37 |
| DLK1 (delta like non-canonical Notch ligand 1) | 0.71 |
| DLK1 (delta like non-canonical Notch ligand 1) | 0.45 |
| DLK1 (delta like non-canonical Notch ligand 1) | 1.02 |
| HECA (HECA ribonucleoprotein granule regulator) | 1.6 |
| HECA (HECA ribonucleoprotein granule regulator) | 2.36 |
| HECA (HECA ribonucleoprotein granule regulator) | 4.1 (active) |
| HECA (HECA ribonucleoprotein granule regulator) | 3.84 (active) |
| PRDM16 (PR/SET domain 16) | -1.15 |
| PRDM16 (PR/SET domain 16) | -1.08 |
| PRDM16 (PR/SET domain 16) | -0.81 |
| PRDM16 (PR/SET domain 16) | -0.18 |
| NAAA (N-acylethanolamine acid amidase) | -0.98 |
| NAAA (N-acylethanolamine acid amidase) | 1.16 |
| NAAA (N-acylethanolamine acid amidase) | 0.88 |
| NAAA (N-acylethanolamine acid amidase) | 0.03 |
| ESRP2 (epithelial splicing regulatory protein 2) | -0.43 |
| ESRP2 (epithelial splicing regulatory protein 2) | 0.52 |
| ESRP2 (epithelial splicing regulatory protein 2) | -0.29 |
| ESRP2 (epithelial splicing regulatory protein 2) | -0.72 |
| NPNT (nephronectin) | 0.94 |
| NPNT (nephronectin) | 1.02 |
| NPNT (nephronectin) | -0.12 |
| NPNT (nephronectin) | 1.06 |
| CCDC116 (coiled-coil domain containing 116) | 0.86 |
| CCDC116 (coiled-coil domain containing 116) | -0.2 |
| CCDC116 (coiled-coil domain containing 116) | 0.12 |
| CCDC116 (coiled-coil domain containing 116) | 0.22 |
| PRICKLE3 (prickle planar cell polarity protein 3) | -0.34 |
| PRICKLE3 (prickle planar cell polarity protein 3) | -0.55 |
| PRICKLE3 (prickle planar cell polarity protein 3) | -1 |
| PRICKLE3 (prickle planar cell polarity protein 3) | 0.72 |
| GJB5 (gap junction protein beta 5) | -1.38 |
| GJB5 (gap junction protein beta 5) | -0.51 |
| GJB5 (gap junction protein beta 5) | -2.01 (active) |
| GJB5 (gap junction protein beta 5) | -1 |

Records above whose target name starts with C or c:
| gene | TNF reporter robust z-score |
| --- | --- |
| CCDC116 (coiled-coil domain containing 116) | 0.86 |
| CCDC116 (coiled-coil domain containing 116) | -0.2 |
| CCDC116 (coiled-coil domain containing 116) | 0.12 |
| CCDC116 (coiled-coil domain containing 116) | 0.22 |

More results:
| gene | TNF reporter robust z-score |
| --- | --- |
| ZNF85 (zinc finger protein 85) | -2.38 (active) |
| ZNF85 (zinc finger protein 85) | -2.21 (active) |
| ZNF85 (zinc finger protein 85) | -2.05 (active) |
| ZNF85 (zinc finger protein 85) | -2.14 (active) |
| MCM7 (minichromosome maintenance complex component 7) | -0.31 |
| MCM7 (minichromosome maintenance complex component 7) | 0.81 |
| MCM7 (minichromosome maintenance complex component 7) | -0.36 |
| MCM7 (minichromosome maintenance complex component 7) | -0.76 |
| FCN2 (ficolin 2) | -0.17 |
| FCN2 (ficolin 2) | 0 |
| FCN2 (ficolin 2) | 0.24 |
| FCN2 (ficolin 2) | -0.81 |
| SACK1A (scaffolding CK1 anchoring protein A) | -0.74 |
| SACK1A (scaffolding CK1 anchoring protein A) | -0.49 |
| SACK1A (scaffolding CK1 anchoring protein A) | -0.15 |
| SACK1A (scaffolding CK1 anchoring protein A) | -0.26 |
| HSPA12A (heat shock protein family A (Hsp70) member 12A) | 0.04 |
| HSPA12A (heat shock protein family A (Hsp70) member 12A) | -0.12 |
| HSPA12A (heat shock protein family A (Hsp70) member 12A) | 1.1 |
| HSPA12A (heat shock protein family A (Hsp70) member 12A) | -0.24 |
| TCP11L1 (t-complex 11 like 1) | 1.15 |
| TCP11L1 (t-complex 11 like 1) | 1.86 |
| TCP11L1 (t-complex 11 like 1) | 1.98 |
| TCP11L1 (t-complex 11 like 1) | 0.55 |
| MS4A13 (membrane spanning 4-domains A13) | -1.31 |
| MS4A13 (membrane spanning 4-domains A13) | -0.95 |
| MS4A13 (membrane spanning 4-domains A13) | -0.62 |
| MS4A13 (membrane spanning 4-domains A13) | 0.49 |
| FAM169BP (family with sequence similarity 169 member B, pseudogene) | -1.18 |
| FAM169BP (family with sequence similarity 169 member B, pseudogene) | -0.51 |
| FAM169BP (family with sequence similarity 169 member B, pseudogene) | -0.87 |
| FAM169BP (family with sequence similarity 169 member B, pseudogene) | 0.85 |
| CEP57L1 (centrosomal protein 57 like 1) | -1.88 (active) |
| CEP57L1 (centrosomal protein 57 like 1) | -1.09 |
| CEP57L1 (centrosomal protein 57 like 1) | -1.4 |
| CEP57L1 (centrosomal protein 57 like 1) | -1.12 |
| TRPC6 | 0.58 |
| TRPC6 | -0.77 |
| TRPC6 | -0.98 |
| TRPC6 | -1.05 |
| PCDHGA1 (protocadherin gamma subfamily A, 1) | -1.66 (active) |
| PCDHGA1 (protocadherin gamma subfamily A, 1) | -1.47 |
| PCDHGA1 (protocadherin gamma subfamily A, 1) | -0.92 |
| PCDHGA1 (protocadherin gamma subfamily A, 1) | -1.38 |
| FGD1 (FYVE, RhoGEF and PH domain containing 1) | 0.8 |
| FGD1 (FYVE, RhoGEF and PH domain containing 1) | -0.65 |
| FGD1 (FYVE, RhoGEF and PH domain containing 1) | -0.17 |
| FGD1 (FYVE, RhoGEF and PH domain containing 1) | 0.35 |
| CRYBB3 (crystallin beta B3) | 0.48 |
| CRYBB3 (crystallin beta B3) | 0.32 |
| CRYBB3 (crystallin beta B3) | 0.24 |
| CRYBB3 (crystallin beta B3) | 2.21 |
| MAP1S (microtubule associated protein 1S) | -0.15 |
| MAP1S (microtubule associated protein 1S) | 0.22 |
| MAP1S (microtubule associated protein 1S) | -0.35 |
| MAP1S (microtubule associated protein 1S) | 1.42 |
| SPMAP1 (sperm microtubule associated protein 1) | 0.06 |
| SPMAP1 (sperm microtubule associated protein 1) | 0.63 |
| SPMAP1 (sperm microtubule associated protein 1) | 1.16 |
| SPMAP1 (sperm microtubule associated protein 1) | 0.6 |
| SLC9A1 | 0.05 |
| SLC9A1 | -1.21 |
| SLC9A1 | 0.16 |
| SLC9A1 | 1.38 |
| RBMY1A1 (RNA binding motif protein Y-linked family 1 member A1) | 2.71 |
| RBMY1A1 (RNA binding motif protein Y-linked family 1 member A1) | 2.61 |
| RBMY1A1 (RNA binding motif protein Y-linked family 1 member A1) | 1.56 |
| RBMY1A1 (RNA binding motif protein Y-linked family 1 member A1) | 0.55 |
| PROX1 (prospero homeobox 1) | 0.03 |
| PROX1 (prospero homeobox 1) | 0.42 |
| PROX1 (prospero homeobox 1) | -0.08 |
| PROX1 (prospero homeobox 1) | 0.15 |
| HUS1B (HUS1 checkpoint clamp component B) | 0.08 |
| HUS1B (HUS1 checkpoint clamp component B) | 0.11 |
| HUS1B (HUS1 checkpoint clamp component B) | 0.09 |
| HUS1B (HUS1 checkpoint clamp component B) | 0.43 |
| RNF152 (ring finger protein 152) | -2.33 (active) |
| RNF152 (ring finger protein 152) | -2.19 (active) |
| RNF152 (ring finger protein 152) | -0.15 |
| RNF152 (ring finger protein 152) | -1.7 (active) |
